This is an account of results in PubChem BioAssay AID2685 (National Center for Advancing Translational Sciences (NCATS), 2010).

This assay is described as follows: qHTS Assay for Lipid Storage Modulators in Drosophila S3 Cells.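 On cell number change: cells counted by Cell Tracker Red CMTPX staining in the red channel.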 The note with it: BODIPY lipid droplet fluorescence, 18-24 h; for cell number change: measured here: cell count max response, cells fed with added oleic acid. The essentials:
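Drosophila S3 cells loaded with oleic acid (400 uM, as added) and compounds at several concentrations; lipid droplets imaged by 488-nm laser-scanning cytometry, 500–530 nm intensity and object ratio to cell channel. Percent activity normalized to 20 uM Triacsin C.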
(In general: In qHTS, concentration-response curves come from the screen itself.)

[1] abbreviates: measured here: lipid fluorescence (Fed channel) AC50, cells fed with added oleic acid.
Setting [2] is: measured here: cell number channel AC50, cells fed with added oleic acid.

The list shows a part of the results. Shown are side measurements of this screen, not its main read-out; they come without a call. Most of these compounds were active or inconclusive in the main read-out, so they are no random draw. Potencies come from curve fits of mixed quality, noted in brackets.

In general, AC50 refers to the concentration giving half of the maximal activity seen. Regarding `O=C(NC(=S)Nc1nc(-c2ccc([N+](=O)[O-])cc2)cs1)c1ccco1`, the cell number change is -8.28%. Also, the half-maximal activity concentration (AC50) under setting [1] was 0.92 µM [falling, partial curve, poor fit].
For `COc1cc(NS(=O)(=O)c2ccc(NC(=S)NC(=O)COc3ccccc3OC)cc2)nc(OC)n1`, the cell number change was -42.1%. Besides, the AC50 under setting [2] was 3.66 µM [falling, partial curve]. The AC50 under setting [1] was 6.51 µM [falling, partial curve].
On to `CN(C(=O)COC(=O)C(C)(C)Oc1ccc(Cl)cc1)c1c(N)n(Cc2ccccc2)c(=O)[nH]c1=O`, for which the cell number change was -35.6%. Also, under setting [2], the AC50 was 29.1 µM [falling, single point]. In addition, the half-maximal activity concentration (AC50) under setting [1] was 29.1 µM [falling, single point].
Turning to `COc1cccc(C(C)NC(=O)Nc2cccc(C(F)(F)F)c2)c1` (centres undefined), the cell number change was -27%.
Consider `Cc1ccc(CC2CC(=O)N(c3ccc4c(c3)OCCO4)C2=O)cc1` (centres undefined), for which the cell number change amounted to 5.41%. The half-maximal activity concentration (AC50) under setting [1] is 0.651 µM [falling, full curve, poor fit].
As to `CCOC(=O)CSc1nnc(CSc2nc3sc4c(c3c(=O)[nH]2)CCC4)n1C`, the cell number change is -1.48%. For the same molecule, under setting [1], the AC50 was 3.66 µM [falling, single point].
For `COC(=O)NC(Nc1sc2c(c1C(N)=O)CCCC2)(C(=O)OC)C(F)(F)F` (centres undefined), the cell number change is -8.87%.
Turning to `Cc1ccc(S(=O)(=O)N2CCC(=O)N(C(CO)Cc3ccccc3)CC2)cc1` (centres undefined), the cell number change is -12.9%. For the same molecule, the AC50 under setting [1] is 0.731 µM [falling, full curve, poor fit].
On to `C=CCOn1c(=O)c(-c2ccc(OC)cc2)[n+]([O-])c2ccccc21`, for which the cell number change is -15.3%.
As to `Cc1nnc(-c2ccccc2)o1`, the cell number change is -58.4%. The AC50 under setting [2] was 29.1 µM [falling, single point]. The AC50 under setting [1] was 29.1 µM [falling, single point].
On to `COc1cccc(CNS(=O)(=O)c2ccc3c(c2)C(C)(C)C(=O)N3C)c1`, for which the cell number change is -7.92%.
Regarding `NC(=O)CCn1c(C(=O)c2cc(Cl)c(N)c(Cl)c2)c2ccccc2[n+]1[O-]`, the cell number change came out at 1.5%.
`COc1ccccc1N1CCN(C2CCCN(C(=O)c3ccoc3C)C2)CC1` (centres undefined): the cell number change turned out to be 29.7%. Moreover, the AC50 under setting [1] is 6.51 µM [rising, single point].
As to `COc1cccc(C(=O)NNC(=O)/C=C/c2ccccc2)c1`, the cell number change is -7.51%. Further, the concentration at half-maximal activity (AC50) under setting [1] is 0.651 µM [rising, single point].
For `COc1cccc(-c2noc(Cn3nc(C(=O)O)c4ccccc4c3=O)n2)c1`, the cell number change stood at 28.3%. In addition, the half-maximal activity concentration (AC50) under setting [1] is 4.61 µM [falling, partial curve].
`CCCNC(=S)N1CCC(NC(=O)Nc2ccc(C)cc2)CC1`: the cell number change is 21.2%. Also, the concentration at half-maximal activity (AC50) under setting [1] was 0.82 µM [rising, full curve, poor fit].
On to `CCOc1ccc(-c2ccc(SCC(=O)N3CCN(c4ccccc4)CC3)nn2)cc1`, for which the cell number change was 6.69%. In addition, the concentration at half-maximal activity (AC50) under setting [1] was 5.8 µM [rising, partial curve, poor fit].
With `CC(=O)Cn1ncc(N2CCOCC2)cc1=O`, the cell number change is 27.7%. Moreover, the AC50 under setting [2] was 0.112 µM [rising, full curve, poor fit].
With `Cc1cccc(CCNC(=O)C2CCN(S(=O)(=O)c3c(C)nn(C)c3C)CC2)c1`, under setting [1], the AC50 is 6.51 µM [rising, single point].
Same read-out and setting: to `O=C(CN1CCC(NC(=O)c2ccccc2F)CC1)NCc1ccc(F)cc1` belongs 0.13 µM [falling, full curve, poor fit].
Take `CCn1ncc(C2=NOC(C(=O)Nc3c(C)n(C)n(-c4ccccc4)c3=O)C2)c1C` (centres undefined): the cell number change was found to be 11.3%. Besides, the AC50 under setting [1] is 1.46 µM [falling, full curve, poor fit].
`COc1ccccc1/C=C/C(=O)Nc1ccc(N2CCOCC2)cc1`: the cell number change is -15.1%. Also, under setting [1], the concentration at half-maximal activity (AC50) is 29.1 µM [falling, single point].
On to `CN1CCN(C2=C(Cl)C(=O)N(Cc3ccccc3)C2=O)CC1`, for which the cell number change was found to be 33.1%. Besides, the AC50 under setting [2] was 4.11 µM [rising, full curve, poor fit].
`Nc1c(C(=O)NCc2ccco2)sc2nc3c(cc12)C(=O)CCC3`: the cell number change is 118%. For the same molecule, the AC50 under setting [2] was 8.2 µM [rising, partial curve]. Moreover, the AC50 under setting [1] was 8.2 µM [rising, partial curve].
With `COC(=O)c1ccc(N=NNc2ccccc2)cc1`, the cell number change was determined as 4.44%. The AC50 under setting [1] is 1.16 µM [falling, single point].
For `CCN=C1SC(C(=O)Nc2ccc(OC)cc2)CC(=O)N1CC` (centres undefined), the cell number change is -4.44%. Further, the AC50 under setting [1] was 0.731 µM [falling, partial curve, poor fit].
`Cc1ccc(N(C(=O)c2ccc(S(=O)(=O)N3CCCC3)cc2)C2C=CS(=O)(=O)C2)cc1` (centres undefined): the cell number change is -18.1%. In addition, the AC50 under setting [2] was 4.11 µM [falling, partial curve, poor fit].
For `COC(=O)C1CCN(C(=O)C2CCN(C(=O)[C@H](C)NS(=O)(=O)c3ccc(C)cc3)CC2)CC1`, the cell number change was 17.2%. Besides, under setting [2], the AC50 is 2.06 µM [rising, partial curve, poor fit]. Under setting [1], the AC50 is 29.1 µM [rising, single point].
With `COc1ccc(NC(=O)CN(C)C(=O)CCNS(=O)(=O)c2ccc(Br)cc2)cc1`, the cell number change was found to be 34.6%.
As for `COc1ccccc1OCC(=O)NCc1cccs1`, the cell number change amounted to 30.2%. The half-maximal activity concentration (AC50) under setting [2] is 29.1 µM [rising, single point].
As for `Cc1ccc(NC(=O)COC(=O)CCc2c(C)nc3nc(N)nn3c2C)cc1C`, the cell number change is 5.36%. Also, under setting [1], the concentration at half-maximal activity (AC50) is 0.366 µM [rising, full curve].
`O=C(NC1CCCC1)c1cc(-c2ccc(Cl)cc2Cl)on1`: the cell number change amounted to 11.5%. Also, under setting [1], the concentration at half-maximal activity (AC50) was 5.17 µM [falling, single point].
In the case of `CCNc1cc(O)ccc1C`, the cell number change is -21.2%. The half-maximal activity concentration (AC50) under setting [2] is 1.16 µM [falling, single point]. In addition, the AC50 under setting [1] is 23.1 µM [rising, partial curve, poor fit].
As to `O=C(COC(=O)Cn1cnc2ccccc2c1=O)NCc1ccccc1`, the cell number change is -0.0343%. Besides, the half-maximal activity concentration (AC50) under setting [1] was 13 µM [falling, partial curve, poor fit].
For the molecule `COc1cccc(NC(=O)CNC(=O)c2ccccc2)c1`, the cell number change came to 1.24%. Besides, under setting [2], the AC50 is 6.51 µM [falling, single point]. Besides, the concentration at half-maximal activity (AC50) under setting [1] was 6.51 µM [falling, single point].
With `COc1ccccc1OCC(=O)NNC(=O)CSC(=S)N1CCCC1`, the cell number change came out at 12.7%. Also, under setting [1], the half-maximal activity concentration (AC50) is 0.517 µM [rising, partial curve, poor fit].
Consider `CCOC(=O)c1c(N)nn(C(=O)C(C)C)c1-c1ccc(OC)cc1`, for which the cell number change was determined as 51.7%. Further, the AC50 under setting [2] was 0.206 µM [rising, full curve]. Further, the half-maximal activity concentration (AC50) under setting [1] was 0.366 µM [rising, full curve].
